According to the supplement of paper PMC11006884:
The entries are a selection whose mix differs from that of the whole data set.

Chains of the proteins cited; added tags and fusions are not shown. Lines headed by an entry give the natural chain unless they say otherwise; changes in a name come on top.
UniProt P31948, whole entry, looked up: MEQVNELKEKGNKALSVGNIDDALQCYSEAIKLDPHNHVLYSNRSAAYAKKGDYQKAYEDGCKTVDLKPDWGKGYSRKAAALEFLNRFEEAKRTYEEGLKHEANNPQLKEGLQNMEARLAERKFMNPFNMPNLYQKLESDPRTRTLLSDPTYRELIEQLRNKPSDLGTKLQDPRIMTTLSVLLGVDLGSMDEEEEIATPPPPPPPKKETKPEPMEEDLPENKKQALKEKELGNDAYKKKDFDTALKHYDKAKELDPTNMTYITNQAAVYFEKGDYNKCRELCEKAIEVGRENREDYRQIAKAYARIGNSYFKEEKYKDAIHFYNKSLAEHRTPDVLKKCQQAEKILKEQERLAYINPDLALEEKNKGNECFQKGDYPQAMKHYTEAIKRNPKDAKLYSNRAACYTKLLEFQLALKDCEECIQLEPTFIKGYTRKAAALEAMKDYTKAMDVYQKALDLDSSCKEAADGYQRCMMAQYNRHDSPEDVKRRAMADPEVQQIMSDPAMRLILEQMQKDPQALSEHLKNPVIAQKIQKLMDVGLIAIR
UniProt P42224: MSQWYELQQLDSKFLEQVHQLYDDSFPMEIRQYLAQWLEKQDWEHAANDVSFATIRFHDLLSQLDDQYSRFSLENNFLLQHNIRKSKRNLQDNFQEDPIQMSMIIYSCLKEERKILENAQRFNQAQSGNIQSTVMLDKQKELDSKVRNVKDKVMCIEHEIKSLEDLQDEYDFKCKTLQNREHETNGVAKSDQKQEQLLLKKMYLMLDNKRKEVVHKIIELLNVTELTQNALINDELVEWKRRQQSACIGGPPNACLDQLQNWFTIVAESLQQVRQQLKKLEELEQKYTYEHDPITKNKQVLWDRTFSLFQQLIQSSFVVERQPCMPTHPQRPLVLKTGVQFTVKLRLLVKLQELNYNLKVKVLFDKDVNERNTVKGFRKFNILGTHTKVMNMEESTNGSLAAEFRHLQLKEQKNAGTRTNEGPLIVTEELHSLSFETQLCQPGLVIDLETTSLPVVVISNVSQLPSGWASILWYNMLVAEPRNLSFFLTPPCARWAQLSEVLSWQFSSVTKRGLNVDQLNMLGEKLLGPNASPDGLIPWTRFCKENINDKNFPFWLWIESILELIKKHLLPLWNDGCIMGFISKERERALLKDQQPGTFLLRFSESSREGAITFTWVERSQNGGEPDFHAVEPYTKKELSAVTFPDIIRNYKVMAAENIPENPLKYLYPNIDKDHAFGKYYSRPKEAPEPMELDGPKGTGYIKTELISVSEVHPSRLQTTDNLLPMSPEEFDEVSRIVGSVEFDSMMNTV
UniProt P35611: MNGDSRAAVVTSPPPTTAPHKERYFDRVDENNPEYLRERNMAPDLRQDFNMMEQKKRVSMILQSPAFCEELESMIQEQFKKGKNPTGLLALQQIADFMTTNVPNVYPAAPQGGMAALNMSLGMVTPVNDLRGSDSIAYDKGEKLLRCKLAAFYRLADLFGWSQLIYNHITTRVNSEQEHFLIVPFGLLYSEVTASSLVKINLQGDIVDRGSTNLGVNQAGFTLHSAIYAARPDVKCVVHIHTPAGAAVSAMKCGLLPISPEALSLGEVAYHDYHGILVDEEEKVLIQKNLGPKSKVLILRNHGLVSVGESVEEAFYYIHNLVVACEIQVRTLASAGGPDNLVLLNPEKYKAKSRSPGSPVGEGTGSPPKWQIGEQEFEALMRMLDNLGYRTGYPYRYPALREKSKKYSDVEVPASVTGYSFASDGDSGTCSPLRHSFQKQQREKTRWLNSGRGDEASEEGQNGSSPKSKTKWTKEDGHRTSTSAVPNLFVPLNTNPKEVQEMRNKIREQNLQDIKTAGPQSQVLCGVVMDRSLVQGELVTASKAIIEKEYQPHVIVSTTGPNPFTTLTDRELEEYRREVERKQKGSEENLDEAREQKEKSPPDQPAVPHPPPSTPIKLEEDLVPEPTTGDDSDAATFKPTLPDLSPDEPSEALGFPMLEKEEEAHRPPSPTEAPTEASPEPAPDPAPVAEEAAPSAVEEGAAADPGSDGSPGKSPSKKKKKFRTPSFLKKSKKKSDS
UniProt P43243: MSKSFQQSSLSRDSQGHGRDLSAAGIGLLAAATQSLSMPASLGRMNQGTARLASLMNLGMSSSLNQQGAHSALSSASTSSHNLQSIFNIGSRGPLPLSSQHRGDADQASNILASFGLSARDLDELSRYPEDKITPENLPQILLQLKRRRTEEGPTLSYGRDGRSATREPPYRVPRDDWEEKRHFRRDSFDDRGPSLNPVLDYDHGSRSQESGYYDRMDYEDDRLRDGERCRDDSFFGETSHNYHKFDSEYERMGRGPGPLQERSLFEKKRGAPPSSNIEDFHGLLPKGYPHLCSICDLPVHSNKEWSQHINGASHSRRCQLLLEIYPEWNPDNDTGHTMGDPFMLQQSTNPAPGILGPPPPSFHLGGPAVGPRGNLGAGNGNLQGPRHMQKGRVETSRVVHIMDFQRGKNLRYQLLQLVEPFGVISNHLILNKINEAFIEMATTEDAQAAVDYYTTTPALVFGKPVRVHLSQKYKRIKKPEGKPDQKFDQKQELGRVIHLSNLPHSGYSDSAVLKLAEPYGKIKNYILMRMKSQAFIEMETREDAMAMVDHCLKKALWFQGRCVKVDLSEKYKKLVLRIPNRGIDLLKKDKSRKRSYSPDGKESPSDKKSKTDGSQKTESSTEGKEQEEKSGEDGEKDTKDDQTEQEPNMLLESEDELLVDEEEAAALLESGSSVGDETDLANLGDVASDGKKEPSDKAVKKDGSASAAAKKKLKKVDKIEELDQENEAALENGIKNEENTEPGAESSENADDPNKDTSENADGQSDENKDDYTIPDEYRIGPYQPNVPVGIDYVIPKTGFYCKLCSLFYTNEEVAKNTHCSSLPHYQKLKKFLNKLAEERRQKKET
UniProt P40939: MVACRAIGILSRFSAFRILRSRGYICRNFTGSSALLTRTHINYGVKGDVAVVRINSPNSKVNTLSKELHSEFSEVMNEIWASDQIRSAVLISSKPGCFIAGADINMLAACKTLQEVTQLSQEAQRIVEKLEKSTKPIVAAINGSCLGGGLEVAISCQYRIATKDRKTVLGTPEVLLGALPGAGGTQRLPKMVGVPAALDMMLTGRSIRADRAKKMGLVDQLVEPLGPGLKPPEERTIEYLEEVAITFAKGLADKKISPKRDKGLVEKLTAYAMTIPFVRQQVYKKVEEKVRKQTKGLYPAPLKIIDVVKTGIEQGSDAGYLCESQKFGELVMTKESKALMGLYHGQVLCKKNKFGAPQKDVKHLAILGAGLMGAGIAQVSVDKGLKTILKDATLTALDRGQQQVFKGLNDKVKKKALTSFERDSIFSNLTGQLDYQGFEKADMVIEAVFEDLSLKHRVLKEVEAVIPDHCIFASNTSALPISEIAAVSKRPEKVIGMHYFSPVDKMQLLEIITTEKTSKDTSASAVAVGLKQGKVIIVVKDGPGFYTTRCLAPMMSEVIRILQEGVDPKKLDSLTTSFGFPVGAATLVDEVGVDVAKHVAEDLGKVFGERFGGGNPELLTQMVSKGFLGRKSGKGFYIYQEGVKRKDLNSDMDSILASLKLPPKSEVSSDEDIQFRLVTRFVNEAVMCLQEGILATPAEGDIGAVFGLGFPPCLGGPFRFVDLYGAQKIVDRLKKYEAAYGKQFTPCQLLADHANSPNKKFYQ
UniProt P42126: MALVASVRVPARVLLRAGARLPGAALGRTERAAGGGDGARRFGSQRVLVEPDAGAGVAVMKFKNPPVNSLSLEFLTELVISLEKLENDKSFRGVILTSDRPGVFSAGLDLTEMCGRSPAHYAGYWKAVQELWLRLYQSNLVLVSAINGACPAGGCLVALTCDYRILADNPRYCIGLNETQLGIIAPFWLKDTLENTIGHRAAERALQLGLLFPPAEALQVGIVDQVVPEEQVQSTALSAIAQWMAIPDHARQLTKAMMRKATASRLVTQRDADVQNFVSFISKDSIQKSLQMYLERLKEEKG
UniProt P33240: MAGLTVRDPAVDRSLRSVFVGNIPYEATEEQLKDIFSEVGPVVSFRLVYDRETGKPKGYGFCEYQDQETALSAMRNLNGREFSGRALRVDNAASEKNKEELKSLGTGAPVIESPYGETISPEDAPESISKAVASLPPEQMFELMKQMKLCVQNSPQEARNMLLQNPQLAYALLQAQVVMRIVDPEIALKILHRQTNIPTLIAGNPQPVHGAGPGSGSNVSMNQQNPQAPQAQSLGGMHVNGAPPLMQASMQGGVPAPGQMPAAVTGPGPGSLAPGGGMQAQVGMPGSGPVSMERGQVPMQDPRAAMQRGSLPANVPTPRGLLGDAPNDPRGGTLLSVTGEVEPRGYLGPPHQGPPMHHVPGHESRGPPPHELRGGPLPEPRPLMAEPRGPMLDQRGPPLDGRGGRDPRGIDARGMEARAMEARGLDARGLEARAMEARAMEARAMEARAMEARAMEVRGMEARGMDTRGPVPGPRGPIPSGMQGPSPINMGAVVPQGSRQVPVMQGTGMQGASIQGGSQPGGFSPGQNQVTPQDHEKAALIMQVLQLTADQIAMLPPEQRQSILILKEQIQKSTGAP
UniProt P31350, whole entry: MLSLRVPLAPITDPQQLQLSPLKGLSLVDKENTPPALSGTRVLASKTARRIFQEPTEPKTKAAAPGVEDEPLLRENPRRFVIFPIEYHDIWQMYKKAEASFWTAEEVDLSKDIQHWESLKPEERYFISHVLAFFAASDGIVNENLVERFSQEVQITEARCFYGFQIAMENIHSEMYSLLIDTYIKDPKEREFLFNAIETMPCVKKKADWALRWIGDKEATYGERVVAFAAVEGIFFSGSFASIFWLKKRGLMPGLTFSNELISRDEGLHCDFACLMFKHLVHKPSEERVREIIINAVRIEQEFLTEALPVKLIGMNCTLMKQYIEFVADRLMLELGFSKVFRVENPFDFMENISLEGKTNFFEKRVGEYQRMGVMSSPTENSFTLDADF
UniProt P30626: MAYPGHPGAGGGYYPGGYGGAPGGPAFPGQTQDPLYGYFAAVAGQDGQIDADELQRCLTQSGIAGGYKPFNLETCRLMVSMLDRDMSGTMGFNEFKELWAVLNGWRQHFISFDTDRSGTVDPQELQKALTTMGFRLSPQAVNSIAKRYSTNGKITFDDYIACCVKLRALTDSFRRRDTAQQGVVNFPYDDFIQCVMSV
UniProt P32321: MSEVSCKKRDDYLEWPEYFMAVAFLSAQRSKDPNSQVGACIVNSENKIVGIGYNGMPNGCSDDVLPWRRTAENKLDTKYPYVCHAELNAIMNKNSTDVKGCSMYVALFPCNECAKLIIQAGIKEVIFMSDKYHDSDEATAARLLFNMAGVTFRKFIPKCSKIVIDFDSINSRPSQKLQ
UniProt P42684, whole entry: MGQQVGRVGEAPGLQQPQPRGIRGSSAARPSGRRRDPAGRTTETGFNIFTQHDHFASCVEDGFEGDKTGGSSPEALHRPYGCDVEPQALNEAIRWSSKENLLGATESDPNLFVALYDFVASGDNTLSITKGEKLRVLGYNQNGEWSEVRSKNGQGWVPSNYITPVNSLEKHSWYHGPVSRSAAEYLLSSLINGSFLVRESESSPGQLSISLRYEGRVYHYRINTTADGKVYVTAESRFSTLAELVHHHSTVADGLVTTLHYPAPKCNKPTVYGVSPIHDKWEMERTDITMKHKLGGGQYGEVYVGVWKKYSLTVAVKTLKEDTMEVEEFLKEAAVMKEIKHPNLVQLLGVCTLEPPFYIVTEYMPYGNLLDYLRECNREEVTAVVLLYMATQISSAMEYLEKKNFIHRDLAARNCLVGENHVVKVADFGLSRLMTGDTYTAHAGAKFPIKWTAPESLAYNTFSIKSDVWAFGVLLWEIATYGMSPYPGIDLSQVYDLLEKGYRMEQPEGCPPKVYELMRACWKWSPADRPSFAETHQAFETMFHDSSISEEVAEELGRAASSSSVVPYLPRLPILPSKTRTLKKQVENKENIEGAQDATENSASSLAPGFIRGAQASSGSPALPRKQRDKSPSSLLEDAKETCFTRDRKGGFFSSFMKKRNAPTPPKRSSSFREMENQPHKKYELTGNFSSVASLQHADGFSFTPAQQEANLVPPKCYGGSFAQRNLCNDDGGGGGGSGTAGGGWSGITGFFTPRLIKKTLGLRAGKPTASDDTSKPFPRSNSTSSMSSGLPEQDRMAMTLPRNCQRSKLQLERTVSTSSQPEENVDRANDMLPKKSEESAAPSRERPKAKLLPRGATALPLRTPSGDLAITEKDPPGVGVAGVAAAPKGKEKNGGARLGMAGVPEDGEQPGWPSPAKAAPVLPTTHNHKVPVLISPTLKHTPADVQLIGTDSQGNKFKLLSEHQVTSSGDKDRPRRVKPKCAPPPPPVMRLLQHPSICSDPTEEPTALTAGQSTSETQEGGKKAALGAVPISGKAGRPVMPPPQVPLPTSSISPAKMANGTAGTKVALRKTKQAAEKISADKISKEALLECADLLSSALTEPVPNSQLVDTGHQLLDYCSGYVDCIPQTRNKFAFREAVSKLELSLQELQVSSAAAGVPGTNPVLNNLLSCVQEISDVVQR

compound: COC(=O)C#Cc1ccccc1 [methyl 3-phenylpropiolate]; test: log2 ratio of iodoacetamide-alkyne labeling of the cysteine site, DMSO over compound (competition); higher = stronger covalent engagement of the cysteine by the compound, active = 1 or more; conditions: 500 µM; treatment time 1 h; system: HEK293T cell lysate
In short: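 HEK293T lysate (2 mg/mL) was treated with DMSO or electrophile (500 µM, 1 h, ambient temperature), then iodoacetamide alkyne (1 h), clicked to sCIP-TMT reagents, pooled, trypsin-digested overnight at 37 °C, streptavidin-enriched and acid-eluted. Peptides were run on Orbitrap Eclipse LC-MS/MS with FAIMS and quantified in FragPipe. The log2 competition ratio per cysteine is mean control-channel over mean compound-channel reporter intensity. Duplicate channels and three replicates were used, and cysteines quantified in only one replicate were excluded.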

| Target | log2 ratio of iodoacetamide-alkyne labeling |
| --- | --- |
| STIP1 C370 (UniProt P31948) | inactive: 0.241 |
| STAT1 C174 (UniProt P42224) | inactive: 0.106 |
| PDIA3 C406 (UniProt P30101) | inactive: 0.687 |
| POLR2B C1093 (UniProt P30876) | inactive: 0.608 |
| STIP1 C339 (UniProt P31948) | inactive: 0.0728 |
| ADD1 C525 (UniProt P35611) | inactive: 0.437 |
| TTK C465 (UniProt P33981) | inactive: 0.537 |
| GDI1 C302 (UniProt P31150) | inactive: 0.35 |
| MPI C309 (UniProt P34949) | inactive: -0.0967 |
| MATR3 C230 (UniProt P43243) | inactive: 0.346 |
| HADHA C322 (UniProt P40939) | inactive: 0.32 |
| DNAJA1 C302 (UniProt P31689) | inactive: 0.237 |
| MYH9 C1379 (UniProt P35579) | inactive: 0.164 |
| UQCRC1 C410 (UniProt P31930) | inactive: 0.0827 |
| GTF2F1 C130 (UniProt P35269) | inactive: 0.48 |
| UniProt P42677_C77 | active: 1.73 |
| LRPPRC C1277 (UniProt P42704) | inactive: 0.0468 |
| ATP6V1A C138 (UniProt P38606) | inactive: 0.943 |
| ADSL C27 (UniProt P30566) | inactive: 0.0306 |

Quoted from the listing:
POLR2B C1093 (UniProt P30876) | log2 ratio of iodoacetamide-alkyne labeling: inactive: 0.608
GTF2F1 C130 (UniProt P35269) | log2 ratio of iodoacetamide-alkyne labeling: inactive: 0.48
UQCRC1 C410 (UniProt P31930) | log2 ratio of iodoacetamide-alkyne labeling: inactive: 0.0827

Further entries

| Target | log2 ratio of iodoacetamide-alkyne labeling |
| --- | --- |
| NCAPD3 C330 (UniProt P42695) | inactive: 0.316 |
| UniProt P42126_C173 | inactive: 0.0263 |
| IARS C526 (UniProt P41252) | inactive: 0.0745 |
| CSTF2 C150 (UniProt P33240) | inactive: 0.541 |
| MAT2A C214 (UniProt P31153) | inactive: 0.273 |
| HNRNPH1 C22 (UniProt P31943) | inactive: -0.0537 |
| LRPPRC C113 (UniProt P42704) | inactive: 0.0698 |
| RRM2 C202 (UniProt P31350) | inactive: 0.439 |
| MDH2 C212 (UniProt P40926) | inactive: 0.155 |
| LONP1 C637 (UniProt P36776) | inactive: 0.394 |
| LRPPRC C1043 (UniProt P42704) | inactive: 0.0996 |
| MYH9 C1437 (UniProt P35579) | inactive: 0.114 |
| UniProt P42126_C114 | inactive: -0.0618 |
| SRI C162 (UniProt P30626) | inactive: 0.0722 |
| MCM5 C397 (UniProt P33992) | inactive: 0.145 |
| DCTD C83 (UniProt P32321) | inactive: 0.144 |
| MDH1 C251 (UniProt P40925) | inactive: 0.0342 |
| ABL2 C999 (UniProt P42684) | inactive: 0.219 |
| TAGLN2 C63 (UniProt P37802) | inactive: -0.0663 |
